According to article PMC3687523 (Biochemical pharmacology, 2013):

Test system: rat brain CYP2D
[1] = 40 μg i.c.v. propafenone, 30 mg/kg s.c. codeine

SMILES: CCCNCC(O)COc1ccccc1C(=O)CCc1ccccc1 (stereo not drawn) [propafenone]
- percentage of maximal analgesic effect (%MPE) after codeine, compared to vehicle pretreatment (40 μg i.c.v. propafenone 5 min before 30 mg/kg s.c. codeine, at 20, 30 and 40 min): significantly lower
- AUC of analgesia after morphine, compared to vehicle pretreatment (40 μg i.c.v. propafenone, 5 mg/kg s.c. morphine, all time periods): did not result in significantly different
- %MPE after morphine, compared to vehicle pretreatment (40 μg i.c.v. propafenone, 5 mg/kg s.c. morphine, all time points): did not result in significantly different %MPE
- area under the analgesia-time curve (AUC) 0-30 min after codeine, compared to vehicle pretreatment [1]: significantly lower
- area under the analgesia-time curve (AUC) 0-120 min after codeine, compared to vehicle pretreatment [1]: but not for (H) 60-120 min or 0-120 min
- area under the analgesia-time curve (AUC) 60-120 min after codeine, compared to vehicle pretreatment [1]: Neither inhibitor resulted in lower AUC
